# Assay results published in the supplement of paper PMC11060735.
# Where “and” joins values, the source holds several entries; their conditions need not be identical. Identical values can stand only once. Counter-ions that a name gives are not always drawn. ± gives the standard deviation of the averaged measurements. Over roughly 1,800 compounds, “GFP- (p16Ink4a-) cell count relative to negative-control wells” has its median near 0.99; the lowest 2% begin near 0.5. The list shows a part of the results.
# Tested on: mouse p16Ink4a+/- lung fibroblasts (INKBRITE, bleomycin-injured)
# Experiment: GFP- (p16Ink4a-) cell count relative to negative-control wells (fold of vehicle); higher = more p16Ink4a- cells surviving
# Conditions: 1 µM; 3 days
row,SMILES,GFP-
1,Cc1cccc(CC(=O)N2CCc3c2ccc(-c2cn(C)c4ncnc(N)c24)c3F)n1,0.986
2,O=C(O)/C=C/c1ccc(Cn2ccnc2)cc1 [Ozagrel HCl],1.07 and 0.945
3,Cc1ccc(NC(=O)c2ccc(CN3CCN(C)CC3)cc2)cc1Nc1nc(-c2cccnc2)cs1 [Masitinib],1.09
4,CC1CCN(CC[C@H]2CCCN2S(=O)(=O)c2cccc(O)c2)CC1,0.862
5,O=C(Cc1ccc(-c2ccc(OCCN3CCOCC3)cc2)cn1)NCc1ccccc1,0.503
6,O=S(=O)(O)CCS [Mesna],1.1
7,O=C(O)CCCc1c[nH]c2ccccc12 [3-Indolebutyric Acid],0.92
8,Cc1c(N)nc([C@H](CC(N)=O)NC[C@@H](N)C(N)=O)nc1C(=O)N[C@H](C(=O)N[C@@H](C)[C@H](O)[C@@H](C)C(=O)N[C@@H](C(=O)NCCc1nc(-c2nc(C(=O)NCCC[SH](C)C)cs2)cs1)[C@@H](C)O)C(O[C@H]1O[C@H](CO)[C@H](O)[C@@H](O)[C@H]1O[C@H]1O[C@H](CO)[C@@H](O)[C@H](OC(N)=O)[C@@H]1O)c1c[nH]cn1 (some centres not stated) [Bleomycin],0.745
9,NC(CO)(CO)CO,0.909
10,CCC(=O)N1CCN(c2ccc(-n3c(=O)ccc4cnc5ccc(-c6cnc7ccccc7c6)cc5c43)cc2C(F)(F)F)CC1 [Torin 1],0.571
11,Cn1cnc2c1c(=O)[nH]c(=O)n2C [Theobromine],1.02
12,CCN[C@H]1CN(CCCOC)S(=O)(=O)c2sc(S(N)(=O)=O)cc21 [Brinzolamide],1.1
13,CS(=O)(=O)c1ccc([C@@H](O)[C@@H](CO)NC(=O)C(Cl)Cl)cc1 [Thiamphenicol],0.952
14,CN(C)Cc1ccc(S(=O)(=O)n2ccc(/C=C/C(=O)NO)c2)cc1 [Resminostat],0.684 ± 0.099
15,COc1ccc(-c2cc(=O)c3c(OC)c(OC)c(OC)c(OC)c3o2)cc1 [Tangeretin],1.09
16,O[C@@H](COc1cccc2ncccc12)CN1CCN([C@@H]2c3ccccc3[C@@H]3[C@H](c4ccccc42)C3(F)F)CC1 [Zosuquidar 3HCl],0.995
17,Cc1cccc(Nc2nc(-c3ccncc3)cs2)c1,0.985
18,O=C(Nc1ccccc1)Nc1ccc(-c2ccc(C(=O)[C@@H]3CCC[C@H]3C(=O)O)cc2)cc1,0.992
19,Cc1cccc(C)c1NC(=O)C1CCCCN1C (configuration not stated) [Mepivacaine],0.979
20,CN(C[C@@H]1COCCO1)S(=O)(=O)Nc1ccc2ccc3ncc(-c4cnn(C)c4)cc3c(=O)c2c1,0.813
21,"CCCc1nn(C)c2c(O)nc(-c3cc(S(=O)(=O)N4CCN(C)CC4)ccc3OCC)nc12 [Sildenafil, Sildenafil Citrate]",0.849
22,C[C@@H]1COCCN1c1cc(C2(S(C)(=O)=O)CC2)nc(-c2cccc3[nH]ccc23)n1,0.691
23,O=C(O)c1cc(=O)c2ccccc2o1 [Chromocarb],0.965
24,CCN1CCN(C(=O)N[C@@H](C(=O)N[C@@H]2C(=O)N3[C@@H]2SC(C)(C)[C@@H]3C(=O)O)c2ccccc2)C(=O)C1=O [Piperacillin],0.951
25,CCn1c(N)c(C(=O)NC)c(=O)c2ccc(C#C[C@@](C)(O)COC)nc21,0.996
26,COc1ccc(NS(=O)(=O)c2sc3ccc(Cl)cc3c2C)cc1N1CCNCC1,0.919

row,SMILES,GFP-
1,C=C1/C(=C/C=C2\CCC[C@]3(C)[C@@H]([C@H](C)/C=C/[C@@H](C)C(C)C)CC[C@@H]23)C[C@@H](O)C[C@@H]1O [Doxercalciferol],1.41
2,C=C(c1ccc(C(=O)O)cc1)c1cc2c(cc1C)C(C)(C)CCC2(C)C [Bexarotene],0.992
3,COc1ccc(COc2ccc(Cc3cnc(N)nc3N)cc2OC)cc1,0.987
4,Cc1ncc([N+](=O)[O-])n1CCO [Metronidazole],1.03
5,COc1cc(C(C)=O)ccc1O [Apocynin],1.1
6,O=C(Oc1ccccc1C(=O)O)c1ccccc1O [Salsalate],0.999
7,CCOC(=O)[C@H](CCc1ccccc1)N[C@@H](C)C(=O)N1CCC[C@H]1C(=O)O [Enalapril],1
8,Cc1ccccc1CN1C2=NCCN2C(=O)C2=C1CCN(Cc1ccccc1)C2,1.03
9,Cc1cc(Nc2nc(N[C@@H](C)c3ccc(F)cc3)c(C#N)cc2F)n[nH]1,0.703 ± 0.042
10,CC(C)[C@H]1C(=O)N[C@@H](CCCN=C(N)N)C(=O)NCC(=O)N[C@@H](CC(=O)O)C(=O)N[C@H](Cc2ccccc2)C(=O)N1C [Cilengitide],0.887
11,Oc1ccc2ccccc2c1SSc1c(O)ccc2ccccc12,1.01
12,Cc1ccc(C(=O)N(CCCN)[C@@H](c2nc3cc(Cl)ccc3c(=O)n2Cc2ccccc2)C(C)C)cc1 [Ispinesib],0.733
13,O=C(O)CCCc1ccccc1 [Gamma-Phenyl-Butyric Acid],0.949 ± 0.064
14,CC1=CC(=O)NS(=O)(=O)O1 [Acesulfame Potassium],1.06
15,O=C(O)c1cc(=O)[nH]c(=O)[nH]1 [Orotic Acid],1.09
16,CCOc1cc(CC(=O)N[C@@H](CC(C)C)c2ccccc2N2CCCCC2)ccc1C(=O)O [Repaglinide],1.05
17,COc1cc(CCC(C)=O)ccc1O [Vanillylacetone],0.974
18,N=C(N)Nc1ccc(C(=O)Oc2ccc3cc(C(=N)N)ccc3c2)cc1 [Nafamostat],1.16
19,CC(C)(C)C#Cc1cc(N(C(=O)[C@H]2CC[C@H](C)CC2)[C@H]2CC[C@@H](O)CC2)c(C(=O)O)s1 [Lomibuvir],1.27
20,O=C(O)c1cc2cccc([N+](=O)[O-])c2[nH]1,0.924
21,O=C1O[C@H]([C@@H](O)CO)C(O)C1O (some centres not stated) [Sodium ascorbate],0.999
22,COc1cc2c(Nc3ccc(Br)cc3F)ncnc2cc1OCC1CCN(C)CC1 [Vandetanib],0.797
23,COc1cc2nc(N3CCCN(C)CC3)nc(NC3CCN(Cc4ccccc4)CC3)c2cc1OC,0.882 ± 0.057
24,OC[C@H]1O[C@@H](Oc2ccc(O)cc2)[C@H](O)[C@@H](O)[C@@H]1O [Arbutin],1.03
25,CN(C)CCc1c[nH]c2ccc(Cn3cncn3)cc12 [Rizatriptan],0.924
26,Cc1ccc(S(=O)(=O)NC(=O)NN2CC3CCCC3C2)cc1 (configuration not stated) [Gliclazide],1.29
